Experimental data taken from EP4635949A1 (Jiangsu NHWA Pharmaceutical Co., Ltd, priority 2022, dated 2024).

What was measured:
in vivo [1] = settings: male, SD, rat, 30 mg/kg
in vivo [2] = settings: male, SD, rat
[3] = male, SD, rat, in vivo, 30 mg/kg

Kp (in vivo [1]): 0.19
Cmax (in vivo [2]; iv, 1 mg/kg): 1180 ng/mL
Cmax (in vivo [2]; po, 30 mg/kg): 3170 ng/mL
bioavailability (in vivo [2]; po, 30 mg/kg): 26.8%
Brain [3]: 516.3 ng/g
Plasma [3]: 2760.2 ng/mL
Compound: Cc1cc(C)nc(N2CC3CN(C(=O)c4c(F)cccc4-n4nccn4)CC3C2)n1 (stereo not drawn) [Seltorexant, reference compound]
